From patent publication US20260085073A1, “PYRAZOLYLCARBOXAMIDE COMPOUNDS AND THEIR USE IN THERAPY” (Hotspot Therapeutics, Inc., priority 2022, published 2026)

The chains behind the UniProt entries cited, without tags or fusion partners.
UniProt Q9UDY8, whole entry: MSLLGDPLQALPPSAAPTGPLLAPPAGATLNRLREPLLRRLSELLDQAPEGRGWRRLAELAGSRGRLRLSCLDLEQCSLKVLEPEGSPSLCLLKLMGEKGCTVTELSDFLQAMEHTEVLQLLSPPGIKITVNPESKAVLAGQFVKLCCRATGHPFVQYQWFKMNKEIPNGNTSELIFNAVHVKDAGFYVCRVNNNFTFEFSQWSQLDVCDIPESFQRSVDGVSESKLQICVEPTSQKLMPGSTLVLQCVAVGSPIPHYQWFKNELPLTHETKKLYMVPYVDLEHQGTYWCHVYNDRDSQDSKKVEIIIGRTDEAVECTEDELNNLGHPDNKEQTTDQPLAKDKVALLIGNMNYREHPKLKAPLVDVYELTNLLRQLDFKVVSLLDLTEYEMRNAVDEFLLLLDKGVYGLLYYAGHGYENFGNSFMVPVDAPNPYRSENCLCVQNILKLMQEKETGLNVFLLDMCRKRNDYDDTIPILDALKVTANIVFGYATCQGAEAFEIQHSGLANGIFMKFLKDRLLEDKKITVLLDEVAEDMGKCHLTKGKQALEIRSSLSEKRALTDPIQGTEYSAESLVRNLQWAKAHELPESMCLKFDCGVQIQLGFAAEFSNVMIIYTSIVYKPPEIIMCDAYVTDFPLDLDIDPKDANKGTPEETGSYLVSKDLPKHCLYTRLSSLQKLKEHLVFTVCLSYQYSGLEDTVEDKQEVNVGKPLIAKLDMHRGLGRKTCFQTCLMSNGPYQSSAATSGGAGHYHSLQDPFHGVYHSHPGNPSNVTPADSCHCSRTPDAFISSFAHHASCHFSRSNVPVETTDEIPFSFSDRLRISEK

Target: MALT1 (Homo sapiens, UniProt Q9UDY8)
Assay: MALT1 inhibition assay (MALT-1 Fluorogenic Peptide Cleavage Assay, Ac-LRSR-AMC substrate)
Details: read-out: MALT1 IC50, Avi-tagged FL MALT-1, 30 min pre-incubation, 90 min reaction at room temperature, fluorescence intensity
Method: Example 71—MALT1 Inhibition Assay
Compounds were tested for ability to bind to MALT1.
Inhibition of MALT1 activity by the presence of small molecules was evaluated using MALT-1 Fluorogenic Peptide Cleavage Assay. The assay utilizes a quenched AMC-labelled peptide that contains the MALT-1 recognition sequence and cleavage site (LRSR). MALT-1 mediated cleavage of the peptide relieves the quenching and leads to an increase in fluorescence at excitation (342 nm) and emission (441 nm). […]
Compounds were plated to provide a 2% DMSO final concentration using a ProxiPlate-384 Plus F Black 384-shallow well microplate. The assay-ready plates were equilibrated to room temperature. […]
Fluorescence intensity was determined using a CLARIOstar microplate reader (BMG LABTECH) using the optimised AMC mode. Before taking readings, a 70% gain was applied on the neutral control well. […]

SMILES: Cn1nc(-c2ccncc2Cl)c(C(F)(F)F)c1C(=O)Nc1ccnc(C(F)(F)F)c1
- IC50: < 500 nM

The match of structure and compound is tentative.
